Results taken from article doi:10.1101/551929.

Columns and labels:
[1] = molecular target: T1, Strep-tagged full-length VgrG2b (PA0262) (Pseudomonas aeruginosa) (UniProt Q9I6M7); test: pull-down
T1 sequence: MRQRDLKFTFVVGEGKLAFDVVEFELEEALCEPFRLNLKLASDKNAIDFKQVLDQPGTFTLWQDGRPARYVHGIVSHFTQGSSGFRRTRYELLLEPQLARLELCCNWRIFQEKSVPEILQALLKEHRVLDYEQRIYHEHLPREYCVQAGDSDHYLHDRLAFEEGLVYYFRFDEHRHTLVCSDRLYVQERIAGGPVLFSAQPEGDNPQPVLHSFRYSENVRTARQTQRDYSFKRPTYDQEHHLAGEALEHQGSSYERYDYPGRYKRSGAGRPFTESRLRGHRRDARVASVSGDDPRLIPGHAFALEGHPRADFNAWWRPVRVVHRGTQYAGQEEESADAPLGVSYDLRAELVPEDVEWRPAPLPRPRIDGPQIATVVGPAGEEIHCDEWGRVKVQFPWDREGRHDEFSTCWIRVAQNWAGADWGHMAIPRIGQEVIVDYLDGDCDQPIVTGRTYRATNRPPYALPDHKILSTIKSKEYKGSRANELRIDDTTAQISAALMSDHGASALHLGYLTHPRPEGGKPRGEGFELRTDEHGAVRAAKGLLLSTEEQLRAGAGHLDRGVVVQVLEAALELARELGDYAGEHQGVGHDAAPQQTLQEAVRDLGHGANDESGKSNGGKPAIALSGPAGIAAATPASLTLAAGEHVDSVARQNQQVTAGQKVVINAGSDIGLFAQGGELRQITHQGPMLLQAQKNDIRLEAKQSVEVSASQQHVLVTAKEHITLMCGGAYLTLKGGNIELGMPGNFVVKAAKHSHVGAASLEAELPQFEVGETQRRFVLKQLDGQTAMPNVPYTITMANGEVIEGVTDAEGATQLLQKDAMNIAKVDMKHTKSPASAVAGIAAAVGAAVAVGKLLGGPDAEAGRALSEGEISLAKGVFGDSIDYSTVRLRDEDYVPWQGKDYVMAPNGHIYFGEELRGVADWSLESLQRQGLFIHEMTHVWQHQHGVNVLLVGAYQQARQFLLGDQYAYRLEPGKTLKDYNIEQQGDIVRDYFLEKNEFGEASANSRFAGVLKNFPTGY

[2] = molecular target: cytoplasmic Strep-tagged Tla3 (PA0259), mature domain (Pseudomonas aeruginosa); test: pull-down
[3] = molecular target: PA0259 (Tla3) first DUF2875 domain alone (BACTH) (Pseudomonas aeruginosa); test: two-hybrid
[4] = molecular target: PA0259 (Tla3) second DUF2875 domain alone (BACTH) (Pseudomonas aeruginosa); test: two-hybrid

**Q.** For “cytoplasmic 10His-tagged Tla3 (PA0259), mature domain (Pseudomonas aeruginosa)”, which binding [1] is on record?
**A.** binds

B1: cytoplasmic His10-tagged Tle3 (PA0260) (protein, UniProt Q9I6M9 1-716)
chain: MNDRVRSRTIVSAQSITLPKGGDVHLVPPPPKPCVTIVVHGVNDLAGCYERIERGLCQGLNERLDMPPTLPGGQANPGYLTPAGYSLPADDEGKAENPDVVYYRRKFASGAGGAAVRSVVVPFYWGFREEEQYINKTAAHGEWLDRNGNRLDKSGTKEGGQFVNATTNLPDMWGQGFNGKLFGFISLDWFGGTMTHPLFSAAGRKYMVLAAMRLAMLIKIIRKRYPDDTINVVGHSQGTLLTLLAHAFLKDDGVAPADGVIMLNSPYGLFEPLNEKLQGWSSQQTREARLATLKGILEFICGRRHPVPALSSVALRNCQGYGAIGGPGWVGGQGCQTTIDGERLSFDERDNRGSVYLYFTPQDQTVGLANVQGIGWRGIAEQVKGLPGRTGLPQGFHQRIFTVRKRNGEKEKIGGHAPPHVYPLLLAGEKTWEDTGLGGKDRFGRANFDQGDSVLLTAPRLPLPTEARFDFDGAVTAPGENSASGVYQVRDTLDPIDAAIGVSNGGWKEKDSGHAVAQQVDAALAYRYGRDARSVERALNEGKELAQQTHVFSARELGTGMVLVTRAETPYEARLRLQTAEGHLEPLSFHSAIPNNPEHNRRVLAYDLAIGAGDSVDDVVFYQYLCRVADWRLDWKASDKGIFSQGDASVDLPDEEVRALYRAEESKNSQLIDATVAYRKSGEFPVVVGNRLPSLVGTQTILDRYHEQAVRFGGTI
**Q.** Which binding [2] does the source give for B1 here?
**A.** binds

B2: Tle3 fused downstream of the T18 or T25 domain (BACTH) (protein, UniProt Q9I6M9 1-716)
chain: MNDRVRSRTIVSAQSITLPKGGDVHLVPPPPKPCVTIVVHGVNDLAGCYERIERGLCQGLNERLDMPPTLPGGQANPGYLTPAGYSLPADDEGKAENPDVVYYRRKFASGAGGAAVRSVVVPFYWGFREEEQYINKTAAHGEWLDRNGNRLDKSGTKEGGQFVNATTNLPDMWGQGFNGKLFGFISLDWFGGTMTHPLFSAAGRKYMVLAAMRLAMLIKIIRKRYPDDTINVVGHSQGTLLTLLAHAFLKDDGVAPADGVIMLNSPYGLFEPLNEKLQGWSSQQTREARLATLKGILEFICGRRHPVPALSSVALRNCQGYGAIGGPGWVGGQGCQTTIDGERLSFDERDNRGSVYLYFTPQDQTVGLANVQGIGWRGIAEQVKGLPGRTGLPQGFHQRIFTVRKRNGEKEKIGGHAPPHVYPLLLAGEKTWEDTGLGGKDRFGRANFDQGDSVLLTAPRLPLPTEARFDFDGAVTAPGENSASGVYQVRDTLDPIDAAIGVSNGGWKEKDSGHAVAQQVDAALAYRYGRDARSVERALNEGKELAQQTHVFSARELGTGMVLVTRAETPYEARLRLQTAEGHLEPLSFHSAIPNNPEHNRRVLAYDLAIGAGDSVDDVVFYQYLCRVADWRLDWKASDKGIFSQGDASVDLPDEEVRALYRAEESKNSQLIDATVAYRKSGEFPVVVGNRLPSLVGTQTILDRYHEQAVRFGGTI
**Q.** What does the source list for B2?
**A.** binding [3]: no binding; binding [4]: no binding

Results are given in words; binding and its absence hold for the method and conditions named. For some of these results: Binding seen in cells or lysates may run through a third protein. For some of these results: Binding calls can cover weak binding; strength is not graded here. Where a sequence is shown, tags or fusion partners need not be part of it.
